# Results reported in PubChem BioAssay (NCI).
# This is a selection; strong and weak results do not stand in their true shares.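 How to read the values: 0–100, growth inhibition (40 = 60% inhibited); 0, no net growth; -100 to 0, cell death (-40 = 40% of starting cells died; -100 = all dead).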 Calls of active or inactive are those of the source. Rule for the calls: active = growth percent below 10; inactive = the rest.
# Assays:
# PC-3 prostate = test: NCI-60 one-dose screen, 48 h (100 = growth as untreated, 0 = no growth, -100 = all killed); details: 10 µM
# CCRF-CEM leukemia = test: as above; details: 10 µM
smiles,measurement,setting,value
COc1c(O)cc2c(c1OC)-c1ccc(SC)c(=O)cc1C(NC(C)=O)CC2 (configuration not stated),growth,PC-3 prostate,active: -14.2%
same,growth,CCRF-CEM leukemia,active: 1.31%
